This is an account of results in publication PMC5024137 (Scientific Reports, 2016).

In series [1] the target is T1, hOATP2B1 (Homo sapiens, UniProt O94956).
T1 sequence (O94956 1-709): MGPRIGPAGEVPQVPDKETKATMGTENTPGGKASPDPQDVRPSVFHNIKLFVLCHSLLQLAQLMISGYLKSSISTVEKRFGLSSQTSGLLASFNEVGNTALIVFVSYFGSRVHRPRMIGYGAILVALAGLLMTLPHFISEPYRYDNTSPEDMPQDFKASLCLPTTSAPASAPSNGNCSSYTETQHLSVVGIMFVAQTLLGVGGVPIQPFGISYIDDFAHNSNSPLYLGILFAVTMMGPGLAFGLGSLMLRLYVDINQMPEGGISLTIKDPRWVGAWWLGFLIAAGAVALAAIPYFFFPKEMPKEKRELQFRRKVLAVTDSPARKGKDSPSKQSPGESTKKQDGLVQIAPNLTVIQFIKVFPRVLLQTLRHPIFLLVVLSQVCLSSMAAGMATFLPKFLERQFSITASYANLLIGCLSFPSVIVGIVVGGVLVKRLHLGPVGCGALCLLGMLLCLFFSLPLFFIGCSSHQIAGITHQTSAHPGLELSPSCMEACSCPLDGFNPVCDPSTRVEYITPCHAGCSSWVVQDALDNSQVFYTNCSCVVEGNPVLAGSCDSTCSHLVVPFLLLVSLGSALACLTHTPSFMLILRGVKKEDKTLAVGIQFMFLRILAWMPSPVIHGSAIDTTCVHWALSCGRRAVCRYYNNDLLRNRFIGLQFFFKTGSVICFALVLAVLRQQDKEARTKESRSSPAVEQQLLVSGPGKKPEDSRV
Put plainly: Cellular uptake assay: intracellular accumulation in HEK293-hOATP2B1 vs HEK293-MOCK cells (HPLC-MS/MS). Particulars: 0.25 μM, HBSS pH7.4, 37 °C, 20 min.

The target in series [2] is T1, hOATP2B1. Put plainly: pH dependent uptake of morphine and M6G in HEK293-hOATP2B1 cells. The following applies: 0.25 μM, HBSS, 37 °C, 20 min.

Consider `CC(C)c1c(C(=O)Nc2ccccc2)c(-c2ccccc2)c(-c2ccc(F)cc2)n1CC[C@@H](O)C[C@@H](O)CC(=O)O` [atorvastatin], for which the “increase of intracellular accumulation in HEK293-hOATP2B1 compared to HEK293-MOCK” value on hOATP2B1 [1] lay within 2 to 3 fold.

Consider `CN1CC[C@]23c4c5ccc(O)c4O[C@H]2[C@@H](O)C=C[C@H]3[C@H]1C5` [morphine], for which, on hOATP2B1 [2], the “concentration in HEK293-hOATP2B1 cells at pH6.0 relative to pH7.4” value is reported as 2.62 fold. Further, the “increase of intracellular accumulation in HEK293-hOATP2B1 compared to HEK293-MOCK” value on hOATP2B1 [1] is listed as “more than 2 fold”. The intracellular accumulation at hOATP2B1 [1] (HEK293-MOCK cells) worked out at 0.34 nM; on hOATP2B1 [1] (HEK293-hOATP2B1 cells), 0.90 nM.
